# Data reported in the supplement of paper PMC8728848.
# This is one part of the list.
# B1: PX9937I-bfa-538-26-538 (Bacteroides fragilis) (protein)
# chain: DKLDLSPIDYYGSGSYWKTEAQATAYIDGIHKHLRDAAWQHTITFGELRGGRFITGASSDGMGVSNGDIILQNFDETHTGVSKFGDLFGRITNLNLFIARVTDATYLSDEMKNFYLGEVYGLRAFYYFDLYRIYGGVPLRLTADVVEGVIDPNKLYMARSTPKEVMTQIKSDLNKSMEYFGNMNDFDPYKRGKKVYWSKAATECLMGEVYLWTSKVTTGDDVANPADLTIAKTHLESVLNNYNLKMLDDFSQVFNAKNKANDEIIFAIRFLEGEATNSNGTFTYNVGTGSTKNRYQANGEVFGDALDIQNTGNQTYEYNKAVYQNFDDADTRKEATFIASYNKDGKTGELSLYGTHVRKNIGYVNAQGARVYCGDYIFYRLPWVYLTLAEIANMEGDNAAVAKYINLVRKRAYGNAWDETLYAYPETADFTTNELAILHEKDKEFIQEGQRWWDLRRMTLTKGGTPLVFCKEGSLLGDAPILNKSTEAHKLLWPIEKTMLNKDPALEQTPGYK
# Legend:
# Experiment in all cases: glycan array binding signal (z-score within array); higher = stronger binding
# Conditions in all cases: glycan notation: IUPAC condensed, linker removed
# [1] = target: GlcNAc(b1-2)[GlcNAc(b1-4)]Man(a1-3)[GlcNAc(b1-4)][GlcNAc(b1-2)[GlcNAc(b1-6)]Man(a1-6)]Man(b1-4)GlcNAc(b1-4)GlcNAc
# Method in brief: (§1)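 Glycan array binding is given as a within-array Z-score, which can be read as non-binding when negative. The arrays, 3228 of them, came from the Consortium for Functional Glycomics database and were retained only where the protein sequence was available. Z-scores were averaged across arrays of the same protein sequence at different concentrations or buffers and across linkers.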
# [2] = target: GlcNAc(b1-2)[GlcNAc(b1-4)]Man(a1-3)[GlcNAc(b1-4)][GlcNAc(b1-2)[GlcNAc(b1-6)]Man(a1-6)]Man(b1-4)GlcNAc(b1-4)[Fuc(a1-6)]GlcNAc
# Method in brief: as §1
# [3] = target: GlcNAc(b1-2)[GlcNAc(b1-6)]Man(a1-6)[GlcNAc(b1-2)Man(a1-3)]Man(b1-4)GlcNAc(b1-4)GlcNAc
# Method in brief: as §1
# [4] = target: GlcNAc(b1-2)[GlcNAc(b1-6)]Man(a1-6)[GlcNAc(b1-2)Man(a1-3)]Man(b1-4)GlcNAc(b1-4)[Fuc(a1-6)]GlcNAc
# Method in brief: as §1
# [5] = target: GlcNAc(b1-2)[GlcNAc(b1-6)]Man(a1-6)[GlcNAc(b1-4)][GlcNAc(b1-2)Man(a1-3)]Man(b1-4)GlcNAc(b1-4)GlcNAc
# Method in brief: as §1
# GlcNAc(b1-3)Fuc = target: GlcNAc(b1-3)Fuc
# Method in brief: as §1
# GlcNAc(b1-3)Gal = target: GlcNAc(b1-3)Gal
# Method in brief: as §1
# [6] = target: GlcNAc(b1-3)Gal(b1-3)GalNAc
# Method in brief: as §1
# GlcNAc(b1-3)Gal(b1-4)Glc = target: GlcNAc(b1-3)Gal(b1-4)Glc
# Method in brief: as §1
# [7] = target: GlcNAc(b1-3)Gal(b1-4)GlcNAc
# Method in brief: as §1
# [8] = target: GlcNAc(b1-3)Gal(b1-4)GlcNAc(b1-2)Man(a1-3)[GlcNAc(b1-3)Gal(b1-4)GlcNAc(b1-2)Man(a1-6)]Man(b1-4)GlcNAc(b1-4)GlcNAc
# Method in brief: as §1
# [9] = target: GlcNAc(b1-3)Gal(b1-4)GlcNAc(b1-2)Man(a1-3)[GlcNAc(b1-3)Gal(b1-4)GlcNAc(b1-2)Man(a1-6)]Man(b1-4)GlcNAc(b1-4)[Fuc(a1-6)]GlcNAc
# Method in brief: as §1
# [10] = target: GlcNAc(b1-3)Gal(b1-4)GlcNAc(b1-2)[GlcNAc(b1-3)Gal(b1-4)GlcNAc(b1-6)]Man(a1-6)[GlcNAc(b1-3)Gal(b1-4)GlcNAc(b1-2)Man(a1-3)]Man(b1-4)GlcNAc(b1-4)GlcNAc
# Method in brief: as §1
# [11] = target: GlcNAc(b1-3)Gal(b1-4)GlcNAc(b1-3)Gal(b1-4)GlcNAc
# Method in brief: as §1
# [12] = target: GlcNAc(b1-3)Gal(b1-4)GlcNAc(b1-3)Gal(b1-4)GlcNAc(b1-2)Man(a1-3)[GlcNAc(b1-3)Gal(b1-4)GlcNAc(b1-3)Gal(b1-4)GlcNAc(b1-2)Man(a1-6)]Man(b1-4)GlcNAc(b1-4)GlcNAc
# Method in brief: as §1
# [13] = target: GlcNAc(b1-3)Gal(b1-4)GlcNAc(b1-3)Gal(b1-4)GlcNAc(b1-2)Man(a1-3)[GlcNAc(b1-3)Gal(b1-4)GlcNAc(b1-3)Gal(b1-4)GlcNAc(b1-2)Man(a1-6)]Man(b1-4)GlcNAc(b1-4)[Fuc(a1-6)]GlcNAc
# Method in brief: as §1
# [14] = target: GlcNAc(b1-3)Gal(b1-4)GlcNAc(b1-3)Gal(b1-4)GlcNAc(b1-2)[GlcNAc(b1-3)Gal(b1-4)GlcNAc(b1-3)Gal(b1-4)GlcNAc(b1-6)]Man(a1-6)[GlcNAc(b1-3)Gal(b1-4)GlcNAc(b1-3)Gal(b1-4)GlcNAc(b1-2)Man(a1-3)]Man(b1-4)GlcNAc(b1-4)[Fuc(a1-6)]GlcNAc
# Method in brief: as §1
# [15] = target: GlcNAc(b1-3)Gal(b1-4)GlcNAc(b1-3)Gal(b1-4)GlcNAc(b1-3)Gal(b1-4)GlcNAc(b1-2)Man(a1-3)[GlcNAc(b1-3)Gal(b1-4)GlcNAc(b1-3)Gal(b1-4)GlcNAc(b1-3)Gal(b1-4)GlcNAc(b1-2)Man(a1-6)]Man(b1-4)GlcNAc(b1-4)GlcNAc
# Method in brief: as §1
# [16] = target: GlcNAc(b1-3)Gal(b1-4)GlcNAc(b1-3)Gal(b1-4)GlcNAc(b1-3)Gal(b1-4)GlcNAc(b1-2)Man(a1-3)[GlcNAc(b1-3)Gal(b1-4)GlcNAc(b1-3)Gal(b1-4)GlcNAc(b1-3)Gal(b1-4)GlcNAc(b1-2)Man(a1-6)]Man(b1-4)GlcNAc(b1-4)[Fuc(a1-6)]GlcNAc
# Method in brief: as §1
# [17] = target: GlcNAc(b1-3)Gal(b1-4)GlcNAc(b1-3)Gal(b1-4)GlcNAc(b1-3)Gal(b1-4)GlcNAc(b1-2)[GlcNAc(b1-3)Gal(b1-4)GlcNAc(b1-3)Gal(b1-4)GlcNAc(b1-3)Gal(b1-4)GlcNAc(b1-6)]Man(a1-6)[GlcNAc(b1-3)Gal(b1-4)GlcNAc(b1-3)Gal(b1-4)GlcNAc(b1-3)Gal(b1-4)GlcNAc(b1-2)Man(a1-3)]Man(b1-4)GlcNAc(b1-4)[Fuc(a1-6)]GlcNAc
# Method in brief: as §1
# [18] = target: GlcNAc(b1-3)Gal(b1-4)GlcNAc(b1-3)Gal(b1-4)GlcNAc(b1-3)Gal(b1-4)GlcNAc(b1-3)Gal(b1-4)GlcNAc(b1-2)Man(a1-3)[GlcNAc(b1-3)Gal(b1-4)GlcNAc(b1-3)Gal(b1-4)GlcNAc(b1-3)Gal(b1-4)GlcNAc(b1-3)Gal(b1-4)GlcNAc(b1-2)Man(a1-6)]Man(b1-4)GlcNAc(b1-4)GlcNAc
# Method in brief: as §1
# [19] = target: GlcNAc(b1-3)Gal(b1-4)GlcNAc(b1-3)Gal(b1-4)GlcNAc(b1-3)Gal(b1-4)GlcNAc(b1-3)Gal(b1-4)GlcNAc(b1-2)Man(a1-3)[GlcNAc(b1-3)Gal(b1-4)GlcNAc(b1-3)Gal(b1-4)GlcNAc(b1-3)Gal(b1-4)GlcNAc(b1-3)Gal(b1-4)GlcNAc(b1-2)Man(a1-6)]Man(b1-4)GlcNAc(b1-4)[Fuc(a1-6)]GlcNAc
# Method in brief: as §1
# [20] = target: GlcNAc(b1-3)Gal(b1-4)GlcNAc(b1-3)Gal(b1-4)GlcNAc(b1-3)Gal(b1-4)GlcNAc(b1-3)Gal(b1-4)GlcNAc(b1-2)[GlcNAc(b1-3)Gal(b1-4)GlcNAc(b1-3)Gal(b1-4)GlcNAc(b1-3)Gal(b1-4)GlcNAc(b1-3)Gal(b1-4)GlcNAc(b1-6)]Man(a1-6)[GlcNAc(b1-3)Gal(b1-4)GlcNAc(b1-3)Gal(b1-4)GlcNAc(b1-3)Gal(b1-4)GlcNAc(b1-3)Gal(b1-4)GlcNAc(b1-2)Man(a1-3)]Man(b1-4)GlcNAc(b1-4)[Fuc(a1-6)]GlcNAc
# Method in brief: as §1
# [21] = target: GlcNAc(b1-3)Gal(b1-4)GlcNAc(b1-3)Gal(b1-4)GlcNAc(b1-3)GalNAc
# Method in brief: as §1
# [22] = target: GlcNAc(b1-3)Gal(b1-4)GlcNAc(b1-3)GalNAc
# Method in brief: as §1
# [23] = target: GlcNAc(b1-3)Gal(b1-4)GlcNAc(b1-3)[GlcNAc(b1-3)Gal(b1-4)GlcNAc(b1-3)]GalNAc
# Method in brief: as §1
# [24] = target: GlcNAc(b1-3)Gal(b1-4)GlcNAc(b1-6)[Gal(b1-3)]GalNAc
# Method in brief: as §1
# [25] = target: GlcNAc(b1-3)Gal(b1-4)GlcNAc(b1-6)[GlcNAc(b1-3)Gal(b1-3)]GalNAc
# Method in brief: as §1
# [26] = target: GlcNAc(b1-3)Gal(b1-4)GlcNAc(b1-6)[GlcNAc(b1-3)]Gal(b1-4)GlcNAc
# Method in brief: as §1
# GlcNAc(b1-3)GalNAc = target: GlcNAc(b1-3)GalNAc
# Method in brief: as §1
# GlcNAc(b1-3)Man = target: GlcNAc(b1-3)Man
# Method in brief: as §1
# [27] = target: GlcNAc(b1-3)[GlcNAc(b1-4)][GlcNAc(b1-6)]GlcNAc
# Method in brief: as §1
# [28] = target: GlcNAc(b1-3)[GlcNAc(b1-6)]Gal(b1-4)GlcNAc
# Method in brief: as §1
# [29] = target: GlcNAc(b1-3)[GlcNAc(b1-6)]GalNAc
# Method in brief: as §1
# [30] = target: GlcNAc(b1-4)Gal(b1-4)GlcNAc
# Method in brief: as §1
# GlcNAc(b1-4)GlcNAc = target: GlcNAc(b1-4)GlcNAc
# Method in brief: as §1
# [31] = target: GlcNAc(b1-4)GlcNAc(b1-4)GlcNAc
# Method in brief: as §1
# [32] = target: GlcNAc(b1-4)GlcNAc(b1-4)GlcNAc(b1-4)GlcNAc(b1-4)GlcNAc
# Method in brief: as §1
binder,measurement,setting,value
B1,glycan array binding signal (z-score),[1],1.78
same,glycan array binding signal (z-score),[2],-0.615
same,glycan array binding signal (z-score),[3],0.847
same,glycan array binding signal (z-score),[4],0.381
same,glycan array binding signal (z-score),[5],-0.243
same,glycan array binding signal (z-score),GlcNAc(b1-3)Fuc,-1.47
same,glycan array binding signal (z-score),GlcNAc(b1-3)Gal,-0.224
same,glycan array binding signal (z-score),[6],-0.051
same,glycan array binding signal (z-score),GlcNAc(b1-3)Gal(b1-4)Glc,-0.462
same,glycan array binding signal (z-score),[7],-1.15
same,glycan array binding signal (z-score),[8],-0.395
same,glycan array binding signal (z-score),[9],1.01
same,glycan array binding signal (z-score),[10],-0.09
same,glycan array binding signal (z-score),[11],-0.969
same,glycan array binding signal (z-score),[12],0.355
same,glycan array binding signal (z-score),[13],0.423
same,glycan array binding signal (z-score),[14],0.7
same,glycan array binding signal (z-score),[15],0.329
same,glycan array binding signal (z-score),[16],0.396
same,glycan array binding signal (z-score),[17],0.512
same,glycan array binding signal (z-score),[18],0.544
same,glycan array binding signal (z-score),[19],0.855
same,glycan array binding signal (z-score),[20],0.041
same,glycan array binding signal (z-score),[21],-0.855
same,glycan array binding signal (z-score),[22],-1.13
same,glycan array binding signal (z-score),[23],-0.193
same,glycan array binding signal (z-score),[24],-0.484
same,glycan array binding signal (z-score),[25],0.43
same,glycan array binding signal (z-score),[26],-0.068
same,glycan array binding signal (z-score),GlcNAc(b1-3)GalNAc,-0.301
same,glycan array binding signal (z-score),GlcNAc(b1-3)Man,-0.839
same,glycan array binding signal (z-score),[27],0.163
same,glycan array binding signal (z-score),[28],-0.19
same,glycan array binding signal (z-score),[29],0.042
same,glycan array binding signal (z-score),[30],1.65
same,glycan array binding signal (z-score),GlcNAc(b1-4)GlcNAc,-0.376
same,glycan array binding signal (z-score),[31],-1.02
same,glycan array binding signal (z-score),[32],1.25

# Given bar-delimited: part of the list above.
binder | measurement | setting | value
B1 | glycan array binding signal (z-score) | GlcNAc(b1-4)GlcNAc | -0.376
same | glycan array binding signal (z-score) | [31] | -1.02
